According to US7094581B2, “Hyaluronan synthases and methods of making and using same” (The Board of Regents of the University of Oklahoma, priority 1998, dated 2006):
Some of these results come from one statement about several compounds together.

System: seHAS^Cys-null
Experiment: Effect of sulfhydryl reagents on the seHAS Cys-null mutant in isolated membranes
Assay type: biochemical, Streptococcus equisimilis
Conditions: conditions of FIG. 3

Compound	Effect of treatment on activity of seHAS^Cys-null [%]
O=[As]O [Sodium Arsenite]	≤ 1
CCN1C(=O)C=CC1=O [N-ethylmaleimide]	≤ 1
